In all, about 52,000 sequences went through this assay and about 210 (0.4%) were called active.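 The calls were made as follows: active = gene whose silencing raises cell survival under the drug, median off-target-corrected z-score across its silencing RNAs 2 or more; inactive = the rest.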 The list shows a part of the results.

This assay in a line: Resistance to Poly (ADP-Ribose) Polymerase inhibitor: Gene Identification via Genome-wide siRNA Screen. The settings on record: mouse BRCA2 R2336H ES cells, olaparib, CellTiter-Glo viability; active compounds read high. In short, it runs like this: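 Mouse BRCA2 R2336H ES cells were reverse-transfected with siRNA (20 nM final), treated at 48 h with 500 nM olaparib, and read by CellTiter-Glo after 72 h. Scores: MAD-based z per siRNA, median per gene, seed off-target correction.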
As to “GGAAAUGCGCCAUGAGUUGTT against 6330407J23Rik”, the z-score is inactive: 2.11.
Turning to “GAAGAGACCUUCACAAAGUTT against 2810036L13Rik”, the z-score was inactive: 0.252.
To CCUUUUCUAUAGAUUCUCGTT against V1rd13 belongs inactive: 0.22.
For “GGAGAUUCAGAAGAUCCUCTT against 0610042E07Rik”, the z-score is inactive: 0.194.
Turning to GGCCAGCUUACCAUUGAUCTT against Acadvl, the z-score was inactive: -0.918.
Next, “GGAAAUCGAAACUGUCUGCTT against 9530020D24Rik”: inactive: 0.787; GCUGUGCAAGCAAUAUCUATT against Hnrpm: inactive: -0.164.
Consider “GCAUGAACACUCUGACUGCTT against 2310003H01Rik”, for which the z-score was inactive: -1.3.
As to GCUUGCACUGGACUCAACUTT against Pax4, the z-score is inactive: -0.42.
Consider GCAUCCUGAGUCCGUAUCCTT against Rbm11, for which the z-score is inactive: 0.109.
Next, “GCAGCUCCUUUAUACCCACTT against 1810057P16Rik”: inactive: -1.28; GCUCUGUGGCCGAAUUCAUTT against Olfr518: inactive: 2.67.
On to GGAGUUUAUGAAUUUGUUCTT against Etfdh, for which the z-score is inactive: -0.595.
For the sequence GGAAAAAAGACAUAAGUCATT against V2r14, the z-score was inactive: 0.149.
As for GUGUGAAGUGCAGACUGAGTT against AI481500, the z-score is inactive: -3.2.
To CCUCAAAUCAGCUAACUCATT against Mocs1 belongs inactive: -0.138; to CCUUCUUAUUGCUUAACCCTT against Scd3, inactive: -0.0307.
For the sequence GCACUGGUCACUAAUUAUATT against Fabp7, the z-score was inactive: 0.142.
Regarding CCACUGAUGCUUCCUACUUTT against BC011209, the z-score was inactive: 2.21.
In the case of GGAUUUUUACUGGUCAAACTT against AI586015, the z-score was inactive: 0.581.
Next, GAGCUUCUAAUUCACCCUATT against Abcc6: inactive: 2.81; GGAUGAUGAAUUCACACACTT against Calr: inactive: 0.473.
On to GCAGUCAUGGGUUCUUAAGTT against Gng3, for which the z-score is inactive: 0.466.
To GGAAACGGCAUAGUGCUAUTT against Mrgprb4 belongs inactive: 1.19; to GCAAAUCUACCUCUUCGGGTT against Cdsn, inactive: -0.379.
Next, CCAUUUUUACCUACAUCCATT against Olfr452: inactive: 1.81.
In the case of GCAUGACAAGAGCUAGUUUTT against Olfr564, the z-score was inactive: 1.02.
On to GCUUUUAGGCCUCCAAAAGTT against Lmnb2, for which the z-score is inactive: -1.22.
Next, GGAGGAAGUUGAAAAUGAATT against Myom2: inactive: 1.33; CCAUUCUGAAAGUUUCAUCTT against Olfr350: inactive: 0.434.
Next, CCUAGUUAGAGUAAUUAGGTT against Mras: inactive: 0.127.
Regarding GCGGGUGAAAUACACCAAGTT against Trim28, the z-score was inactive: -2.71.
Next, GGAAGAAAAGCAGGAAGCUTT against Hmgn3: inactive: 0.92; GCCCGACAUCAUGAUUGUUTT against Gne: inactive: -0.876.
Regarding GCCUCAAAUGCAUACAUACTT against Nr2e1, the z-score is inactive: -1.13.
Next, CCCAUUACCUGAUCAGUGGTT against AK129302: inactive: 0.313; GGGAUAUGUUUCUUGUAGGTT against V1rc7: inactive: 0.552; GGCACAGUUCCUCAGUAUGTT against Hspbap1: inactive: -0.944.
Consider GCAAUGUGAGAAUUUUAACTT against MGC117568, for which the z-score is inactive: 1.68.
Take GGUGAUGCCACUAGUGAAGTT against Scx: the z-score was inactive: -0.595.
In the case of CCCUAACUAAUGAUUCAGATT against Klri1, the z-score was inactive: 1.28.
Consider “GGCAUCCAGACAAGUGAUGTT against C230075L19Rik”, for which the z-score was inactive: -2.03.
With GAUCCAUUUCACGUUGAUUTT against Gadd45g, the z-score is inactive: 0.582.
To GCUGUUGGUUUCUACUCACTT against Adam21 belongs active: 1.43; to “GGCUAGCACUGUUUUUACCTT against 1700123O20Rik”, inactive: 0.373.
To GCAAAUAGUAUUCCUUUGGTT against Akap8 belongs inactive: 0.603; to GCAUGGUAAAAUGCUUAAGTT against Dlst, inactive: 2.4.
In the case of “GGGUUUAUUUGGUCAAGAUTT against 2610205H19Rik”, the z-score is inactive: 1.91.
For GCGGAUUCAGCUGAUGAUGTT against Sash1, the z-score was inactive: 0.424.
Next, GGCAUUUUUCUUCUCCAAATT against Clns1a: inactive: -0.934; GGCCCAGUUUCUGAGGAUCTT against B4galt2: inactive: 0.501.
Next, GCUAGAUAAACUCUCUCAATT against Blr1: inactive: 0.176.
Regarding CCACUGAUAACUCGAUUUGTT against Nrp1, the z-score was inactive: -0.511.
To “GGUCACCUUGUGAAGGCAGTT against A430005L14Rik” belongs inactive: 1.28; to GCAACAUUAUUUCAUCGACTT against Kctd15, inactive: 1.02.
Next, AUGCAAGAGGAACGUAUCATT against Olfr1181: inactive: 1.66; “GGCAAGAAACACAAAAAGATT against 9630048M01Rik”: inactive: 0.165; GCAUUCGGCUGAGAAGAUGTT against Foxb2: inactive: -1.8.
To GCGAUGGAAACUGAAAUGCTT against Jmjd2b belongs inactive: -0.0594; to GGAUGUGACUCUUGACCUGTT against Depdc5, inactive: 0.317.
For CCUCUUAAUGAAGGAAAGCTT against Npy, the z-score is inactive: 0.554.
Next, GCCCGUGGUCUAAAUCUAUTT against Igtp: inactive: 0.596.
To “GGAGCAACUAAUGAAGAAATT against 2810451A06Rik” belongs inactive: -0.796.
Next, “GGUUCUUGCUGAGAGCAUGTT against D930025H04”: inactive: 0.166; GGCUCUGAUAUUGAUACUATT against Cse1l: inactive: -3.03; GGCAUCCACACAGAACAAGTT against Zfp467: inactive: 0.139.
With GGCCUUCACCAAAAGCAUCTT against Ncf2, the z-score is inactive: 1.25.
To “GGAAUCCUUUCCUAAAUUGTT against 2700022J23Rik” belongs inactive: 1.18; to “GGAAAGUAAAGUUUUCUCCTT against 2310075A12Rik”, inactive: 0.426; to UGAAAGCAUAAGCAAUACATT against Sr278, inactive: -0.182.
In the case of GGAUCCUAAGGUCAUGAUCTT against D1Wsu40e, the z-score was inactive: -0.205.
Take UCCAUACAGCAUCCAGUAATT against MGC107671: the z-score is inactive: -2.94.
To GGAAAGUGGAUGUCACCAGTT against Sh3gl2 belongs inactive: -1.44.
Next, “CCUGUGUUAGGAGUUAUUCTT against 1110001C20Rik”: inactive: 0.598; GGUCAAGGAGCCACAAUUGTT against Rsb30: inactive: -2.69.
Next, CCAUGAAACGGGCCAUUUCTT against Cldn3: inactive: -1.68; “CCAUGUGGGUAAGUACAGCTT against 4932411N23Rik”: inactive: -0.639; GGAAGAGGUAGUUGCUAGATT against Hemt1: inactive: 0.506.
With GGUCUUUGAUCUUCUACCGTT against Thbs4, the z-score was inactive: -0.391.
With “GCGUGAUUGACAACUGGUUTT against C330003B14Rik”, the z-score is inactive: 3.1.
Turning to GGAACUGAAUGCGGAAUUCTT against Chi3l1, the z-score was inactive: -1.19.
Take “CCUUAGGAUAGAAACAAAGTT against 1110056A04Rik”: the z-score is inactive: 0.449.
Next, “GGAGCACCAUUUCAGGAUATT against 4930463G05Rik”: inactive: -0.0537.
Next, GGACCCUUUCUUUGAUAUGTT against Rpe: inactive: 0.309.
To GUAACCUGAUUUCCAUUCUTT against Olfr178 belongs inactive: 0.716; to GGACAGGAGGAUUACAACCTT against Rhoj, inactive: 0.739; to “CCGGGAGAUUACAAGUAGCTT against E130309B19Rik”, inactive: 0.649.
Regarding GGUUUGAACUUCAGCAACUTT against Adam15, the z-score was inactive: -0.891.
Next, GGAGACAUGGUGAAGAUUUTT against Vav3: inactive: -0.305; GGACACUAAGGUUCCCAACTT against Polr2j: inactive: -0.685; “GGGAAUCCAAGGAGAGCAUTT against C530009C10Rik”: inactive: 0.391.
Turning to “GGGAUGUGUACCGUUACAUTT against 1700010I14Rik”, the z-score was inactive: 0.13.
Next, GGUCUCCUUCUGCUUGAAGTT against Prx: inactive: -0.965; “GGCUAUGAGGCAAGUCAACTT against 2410003C20Rik”: inactive: -1.84; CCAAAUUGCUGACUUAUUCTT against Ccna2: inactive: 0.232.
As for GGCCAUUUGCAUGAUUAUUTT against Tas2r108, the z-score is inactive: -1.93.
Turning to GGAAAAAAGUCCUUGAGUCTT against Plscr3, the z-score is inactive: 0.44.
Next, GGACAGUGAGGUGAACUUCTT against Enc1: inactive: 1.02.
To GCCACGGAAAACAGCGAGATT against Gpr65 belongs inactive: -0.00509; to “GGCAUUAUGUCAUUGCUGATT against 5430428G01Rik”, inactive: 0.786; to GGAGUGAUGUUCAUUCUGGTT against Tm4sf9, inactive: -0.00641.
Next, UGUCGACUGUCAAGAACUATT against Lyzl6: inactive: 0.0939.
For the sequence GGGUUUUCGGGAGAUCUGUTT against Ltbp4, the z-score was inactive: 3.18.
To GGCAGAAAGCAGAGCUUCUTT against Igfbp3 belongs inactive: -0.841.

For the origin of these results see PubChem BioAssay AID1347423 (Functional Genomics Laboratory (NCATS/FGL), 2020).
